Data as given in PubChem BioAssay AID1259405 (NCATS, 2018).
Assay: 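Mouse-designed siRNAs used to find CHO productivity engineering targets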 (primary screen). Cell system: Chinese hamster CHO-K1 ovary cells with stable secreted eGFP expression. Reagents: single siRNA against mouse genes, 0.8 pmol siRNA per well (2 µl of 400 nM stock). Timing: 3 days. Detection: 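Percent of the per-plate non-targeting control median for intracellular GFP per well by laser scanning cytometry and for cell viability by ATP luminescence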. Direction: GFP, % of control: higher = more GFP per well, higher productivity; viability (ATP), % of control: higher = more viable cells (more ATP). Rule for the call: 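a knock-down is called active if GFP reaches 120% or more of non-targeting control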.
The deposit covers about 50,000 reagents; below is a random part of them. In the full data, about 4,000 (8%) are marked active. 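Mouse siRNA library applied to hamster cells; one well for each siRNA.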 Entries without a mark were called inactive. Reagents against one gene are numbered here.

Aoc1l2 #1: GFP, % of control = 112; viability (ATP), % of control = 64.1
Aoc1l2 #2: GFP, % of control = 82.8; viability (ATP), % of control = 67.6
Aoc1l2 #3: GFP, % of control = 62.3; viability (ATP), % of control = 78
Ankfn1 #1: GFP, % of control = 18.8; viability (ATP), % of control = 24.4
Ankfn1 #2: GFP, % of control = 76.4; viability (ATP), % of control = 71.9
Ankfn1 #3: GFP, % of control = 34.4; viability (ATP), % of control = 82.2
Tpo #1: GFP, % of control = 94; viability (ATP), % of control = 117
Tpo #2: GFP, % of control = 76.2; viability (ATP), % of control = 78.3
Tpo #3: GFP, % of control = 108; viability (ATP), % of control = 110
Zmym2 #1: GFP, % of control = 43.4; viability (ATP), % of control = 46.1
Zmym2 #2: GFP, % of control = 88.8; viability (ATP), % of control = 69.3
Zmym2 #3: GFP, % of control = 91.3; viability (ATP), % of control = 116
Utf1 #1: GFP, % of control = 63.1; viability (ATP), % of control = 40.3
Utf1 #2: GFP, % of control = 77.8; viability (ATP), % of control = 74.3
Utf1 #3: GFP, % of control = 57.4; viability (ATP), % of control = 82.5
Acadsb #1: GFP, % of control = 48.4; viability (ATP), % of control = 58.8
Acadsb #2: GFP, % of control = 74.8; viability (ATP), % of control = 67.4
Acadsb #3: GFP, % of control = 107; viability (ATP), % of control = 100
Naip3 #1: GFP, % of control = 117; viability (ATP), % of control = 104
Naip3 #2: GFP, % of control = 75; viability (ATP), % of control = 85.2
Naip3 #3: GFP, % of control = 52.9; viability (ATP), % of control = 98.2
Pramel37 #1: GFP, % of control = 82.3; viability (ATP), % of control = 68.9
Pramel37 #2: GFP, % of control = 89.7; viability (ATP), % of control = 97.2
Pramel37 #3: GFP, % of control = 0; viability (ATP), % of control = 102
Boll #1: GFP, % of control = 58.6; viability (ATP), % of control = 124
Boll #2: GFP, % of control = 69.5; viability (ATP), % of control = 89.4
Boll #3: GFP, % of control = 77.4; viability (ATP), % of control = 60.5

Reprinted from above (4 entries):
Zmym2 #3: GFP, % of control = 91.3; viability (ATP), % of control = 116
Utf1 #1: GFP, % of control = 63.1; viability (ATP), % of control = 40.3
Utf1 #2: GFP, % of control = 77.8; viability (ATP), % of control = 74.3
Utf1 #3: GFP, % of control = 57.4; viability (ATP), % of control = 82.5
